## Library screening results

Mtb growth Cornell: 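Whole-cell assay for inhibitors of Mycobacterium tuberculosis growth, labelled Cornell in the record; the read-out is not stated. The concentration is filed as 10 mM, unlikely as a test dose, so the dose is not known. Higher means stronger inhibition (inferred from two other growth screens of the library). Size under these conditions: about 53,000 compounds, about 900 of them at 50% or above in at least one test.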
Mtb heat-shock: 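Assay on Mycobacterium tuberculosis, filed only as a heat shock assay from Cornell; the read-out is not stated. The concentration is filed as 10 mM, unlikely as a test dose, so the dose is not known. Direction is inferred from retests: higher values go with stronger inhibition. Of about 69,000 compounds tested this way, about 930 (1.4%) reached 50% or more in at least one test.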

Results are given as percent effect. How 0% and 100% were set is not recorded. Most values in the screen are low, and negative values occur. The compounds are a random part of those screened. A dash means the value is not listed here; it may have been measured.

| compound | Mtb growth Cornell | Mtb heat-shock |
|---|---|---|
| `O=C(Cn1cnnn1)Nc1ccc(F)cc1OCC1CC1` | 9.951 | 1.698 |
| `N#Cc1ccc(F)c(CNC(=O)NC(CO)c2ccccc2)c1` (configuration not stated) | -14.5 | -11.43 |
| `COc1ccc(NC(C)c2ccc(C#N)cc2)cc1N1CCCC1=O` (configuration not stated) | -2.081 | -13.56 |
| `CC(C)C[C@H](N)c1nnc(SCC(N)=O)o1.Cl` | -20.78 | -14.25 |
| `CCOCC1COCCC12CCN(C(=O)C1=CCCC1)CC2` (configuration not stated) | 16.65 | -4.058 |
| `CN1CC(Oc2ccc(Cl)cc2)=NC(SCC(=O)c2ccccc2)=N1` | - | -22.25 |
| `Cc1nc(CNCc2c(C)nn(C)c2N2CCOCC2)cs1` | - | -11.58 |
| `O=C(O)C(F)(F)F.[H][C@@]12CCN(CCc3ccccc3)C[C@]1([H])[C@H](C(=O)N1CCCC1)CCO2` | - | -24.53 |
| `CCCn1cc(S(=O)(=O)N[C@H]2CN(CCO)C[C@@H]2C2CC2)cn1` | -34.04 | -3.508 |
| `O=C(CC1CCC2(CC1)CCN(Cc1nccs1)CC2)N1CC=CC1` | - | -16.13 |
| `CN(C)C(=O)CCS(=O)(=O)Cc1cc(Cl)c2c(c1)OCCO2` | - | 17.46 |
| `CC(C)N(C)CC(=O)NCCc1nc(C(F)(F)F)cs1` | - | 4.666 |
| `[H][C@]12CC[C@]([H])(CN(C)C1)N(C(=O)c1ccc(-c3ccccc3OC)cc1)C2` | 13.87 | -18.12 |
| `CN(C)CCOCc1nnc2n1CCN(Cc1ccoc1)CC2.O=C(O)C(F)(F)F.O=C(O)C(F)(F)F` | -23.8 | -36.04 |
| `CCn1ncc(Cl)c1CN(C)C(=O)CCn1ncc(Br)c1C` | 36.35 | 0.8541 |
| `CC(=O)N(C)CC(=O)NC1(c2ccc(Br)cc2)CC1` | 21.45 | -5.107 |
| `Cc1ccc(-n2cnnn2)cc1NCC(=O)Nc1ccccc1Cl` | 6.921 | -1.357 |
| `CN1C[C@@H](C(=O)NC2CCCC2)[C@@]2(COc3ccc(F)cc3C2=O)C1` | 23.88 | 14.55 |
| `[H][C@@]12CCN(C[C@@H]1CN1CCCCC1)[C@@H](CNC(=O)Nc1ccsc1)C2` | - | -10.36 |
| `O=C(c1ncccn1)N1CCC[C@]2(C[C@H](OCC3CC3)CO2)C1` | 7.452 | -0.06568 |
| `COCCN1CCC2(CC1)CC(NC(=O)CC1CC1)c1ccccc1O2.O=C(O)C(F)(F)F` (configuration not stated) | 26.42 | -9.132 |
| `CCOC(=O)NC(CNC(=O)c1cccnc1SC)CC(C)C` (configuration not stated) | - | 9.049 |
| `COc1ccc(N2Cc3n[nH]c(=O)n3C2=O)cc1` | -3.095 | 8.722 |
| `Cc1ccc(CN2CCC(CNC(=O)Cn3cncn3)CC2)cc1` | - | 11.19 |
| `O=C(NC1(C(=O)NCC2CC2)CCCC1)C1Cc2cc(F)ccc2O1` (configuration not stated) | - | -26.58 |
| `Cc1nnc2n1CCN(Cc1ncc(-c3ccc(F)cc3)o1)C2` | - | 77.14 |
| `CN(C)c1ncccc1CNC(=O)N1CCN(C)c2ccccc2C1` | 21.47 | 9.939 |
| `CCCN1CCC2(Cc3ccccc3NC2=O)C1` (configuration not stated) | -40.41 | 6.346 |
| `COCc1cc(N(C)Cc2c(C)nn(C)c2C)n2nccc2n1` | -21.67 | -18.95 |
| `CCC(C(=O)NCc1nc(C)cc(C(F)(F)F)n1)n1cccn1` (configuration not stated) | 14.73 | 11.59 |
| `CC(C)OCCn1nnnc1Cc1ccc(Br)cc1` | 80.17 | 20.63 |
| `CN1CCN(Cc2ccc(F)cc2)Cc2cccnc21` | -4.931 | -18.85 |
| `O=C(C1CC(=O)N(C2CC2)C1)N1CCN(CCn2cccc2)CC1` (configuration not stated) | - | 0.8945 |
| `CCN1CCCC1CNC(=O)CCc1cccs1` (configuration not stated) | 8.976 | 14.45 |
| `COC1COC2(CCN(S(=O)(=O)c3ccc(F)cc3)CC2)C1` (configuration not stated) | -32.01 | -16.2 |
| `CC(C)N1CCC(Cc2cncc(-c3cccc(C(=O)O)c3)n2)C1` (configuration not stated) | 18.17 | -5.025 |
| `CN(Cc1ccco1)C(=O)CN1CCOC(Cn2cncn2)C1` (configuration not stated) | - | 10.81 |
| `CN1Cc2ccccc2CC2(CCN(Cc3nccn3C)CC2)C1=O` | 4.768 | 24.51 |
| `Oc1ccccc1-c1n[nH]c(C2CC2)n1` | -27.03 | -19.49 |
| `O=C(COCC(F)(F)F)NS(=O)(=O)c1ccc2c(c1)OCCCO2` | -24.82 | -7.096 |
| `CC(C)n1c(=O)c2ccccc2n(CCN2CCCCC2)c1=O` | 12.44 | -2.681 |
| `O=C(O)C(F)(F)F.O=C(O)C(F)(F)F.c1cncc(OC[C@@H]2CCC[C@@]23CN(Cc2nccs2)CCO3)c1` | 41.76 | 2.627 |
| `Cn1cc(C2CCCN2C(=O)CCCOc2ccc(F)cc2F)cn1` (configuration not stated) | 21.66 | 4.438 |
| `COCCN1CCN(Cc2cccc(OCC(N)=O)c2)CC1C` (configuration not stated) | - | -5.439 |
| `CCc1cn[nH]c1C1CCCN(C(=O)c2cc(C(C)C)on2)C1` (configuration not stated) | 1.504 | 10.18 |
| `[H][C@@]12CN(Cc3cccc(CN4CCOCC4)c3)C[C@]1(C(=O)O)CNC2=O` | - | -2.564 |
| `Cc1nc(C)n(CC2CCCN(Cc3cccnc3)C2)n1` (configuration not stated) | 6.124 | 2.204 |
| `CCN(Cc1ccncc1)C(=O)CCn1c(C)cc2ccccc21` | - | 10.06 |
| `CC(NC(=O)NCCC1=CCCCC1)c1nncn1C` (configuration not stated) | -43.63 | -4.535 |
| `CC(=O)N1CCCC(Cc2cnc(-c3c(C)nn(C)c3C)cn2)C1` (configuration not stated) | -19.16 | -8.214 |
| `CC1c2ncc(Cn3cccn3)n2CCN1S(=O)(=O)C1CC1` (configuration not stated) | 7.129 | 3.496 |
| `C1CCC(c2nnc3sc(C4CCCO4)nn23)C1` (configuration not stated) | - | 12.55 |
| `Cn1cccc1C(=O)N1CCn2cc(CNC(=O)CC3CC3)nc2C1` | - | 6.629 |
| `CCOc1ncnc2c1CCN(C(=O)c1cnccn1)CC2` | 14.61 | -17.38 |
| `CO[C@H]1CCN(S(=O)(=O)c2cn(C)cn2)[C@H]1Cc1ccccc1.O=C(O)C(F)(F)F` | 2.958 | -21.26 |
| `Cc1cccc(CN2C(=O)CCC23CCNCC3)n1.O=C(O)C(F)(F)F.O=C(O)C(F)(F)F` | 14.72 | -5.538 |
| `COC(=O)CC1CCCCN1CC(=O)Nc1cc(F)ccc1F` (configuration not stated) | 14.48 | -10.51 |
| `Fc1ccc(-c2cnc(CN3CCOC(Cn4cccn4)C3)o2)cc1` (configuration not stated) | - | 4.751 |
| `COCCCN(C)Cc1nc2c(cnn2C)c(=O)[nH]1` | -6.691 | 1.806 |

3 of the entries, repeated:

| compound | Mtb growth Cornell | Mtb heat-shock |
|---|---|---|
| `COCCN1CCN(Cc2cccc(OCC(N)=O)c2)CC1C` (configuration not stated) | - | -5.439 |
| `COC(=O)CC1CCCCN1CC(=O)Nc1cc(F)ccc1F` (configuration not stated) | 14.48 | -10.51 |
| `Cc1cccc(CN2C(=O)CCC23CCNCC3)n1.O=C(O)C(F)(F)F.O=C(O)C(F)(F)F` | 14.72 | -5.538 |

From ChEMBL document CHEMBL3988442, “University of Dundee, Small-Polar-MMV Screening Library” (2021).